Values quoted from earlier work as cited in US9365541B2, “Compounds for use in the treatment of parasitic diseases” (IRBM—SCIENCE PARK S.P.A., priority 2012, dated 2016).

Test system: P. falciparum
Settings: literature value; read-out: IC50 against P. falciparum; cited from earlier work

Question: For `O=C(CCCCCCC(=O)Nc1ccccc1)NO` [SAHA], which IC50 is on record?
Answer: 100 to 300 nM
